Among the data in paper PMC10442425 are binding values, retold here.

Sequences of proteins named here, by UniProt entry; tags and fusion partners are left off.
UniProt P0DTC4: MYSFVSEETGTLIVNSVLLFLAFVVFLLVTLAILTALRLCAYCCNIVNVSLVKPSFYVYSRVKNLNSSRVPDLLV
UniProt P16671: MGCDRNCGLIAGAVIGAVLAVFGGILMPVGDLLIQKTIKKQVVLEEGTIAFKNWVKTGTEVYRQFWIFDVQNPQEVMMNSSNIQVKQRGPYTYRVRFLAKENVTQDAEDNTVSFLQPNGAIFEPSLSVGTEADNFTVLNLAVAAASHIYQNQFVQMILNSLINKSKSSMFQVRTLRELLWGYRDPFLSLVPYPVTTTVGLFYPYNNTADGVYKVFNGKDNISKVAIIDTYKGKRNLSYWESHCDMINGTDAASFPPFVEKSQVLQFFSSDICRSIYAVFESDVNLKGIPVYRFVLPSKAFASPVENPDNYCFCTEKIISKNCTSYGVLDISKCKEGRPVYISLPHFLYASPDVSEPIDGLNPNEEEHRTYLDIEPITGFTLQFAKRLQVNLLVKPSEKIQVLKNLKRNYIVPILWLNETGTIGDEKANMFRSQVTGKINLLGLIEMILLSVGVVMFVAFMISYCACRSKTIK

These are yes or no findings as the source states them, for the method shown. In cells and extracts the contact can be indirect. Here binding means that the protein was enriched with, or labelled near, the bait; the list need not be complete.

The test addresses recombinant SARS-CoV-2 envelope (E) protein, His-tagged (SARS-CoV-2) (UniProt P0DTC4). The test can be described thus: affinity purification with mass spectrometry; only the target purified.

Regarding “CD36 of human platelets (from UniProt P16671 1-472) (receptor)”, the binding result is “binds”.
